Differences between knockout arms are mostly noise.
Tested on: HCC-38
Assay: relative cell number vs DMSO control (72 h) (% of DMSO); higher = less growth inhibition (more cells)
Method: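 QMAP-Seq: a pool of 5 breast cancer cell lines (ZR-75-1, SKBR3, HCC-38, MDA-MB-231, BT-20), each carrying 12 doxycycline-inducible Cas9 sgRNA perturbations (11 knockouts plus non-targeting sgNT), was treated with compounds for 72 h at four 10-fold doses (10 nM-10 uM or 1 nM-1 uM range). Barcodes were amplified and sequenced, and cell number was interpolated from 293T spike-in standard curves. The result is expressed as % of the median of DMSO wells. Two biological replicates.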

Cc1ccccc1-n1c(Cn2cnc3c(N)ncnc32)nc2cccc(C)c2c1=O
Details	relative cell number
sgRNA knockout: sgATF3, 10 nM	109
sgRNA knockout: sgATF3, 100 nM	120
sgRNA knockout: sgATF3, 1000 nM	109
sgRNA knockout: sgATF3, 10000 nM	95.45
sgRNA knockout: sgATF4, 10 nM	88.1
sgRNA knockout: sgATF4, 100 nM	106
sgRNA knockout: sgATF4, 1000 nM	105
sgRNA knockout: sgATF4, 10000 nM	92
sgRNA knockout: sgATF6, 10 nM	111
sgRNA knockout: sgATF6, 100 nM	130
sgRNA knockout: sgATF6, 1000 nM	102
sgRNA knockout: sgATF6, 10000 nM	107
sgRNA knockout: sgATG7, 10 nM	105
sgRNA knockout: sgATG7, 100 nM	111
sgRNA knockout: sgATG7, 1000 nM	107
sgRNA knockout: sgATG7, 10000 nM	98.2
sgRNA knockout: sgERN1, 10 nM	102
sgRNA knockout: sgERN1, 100 nM	119
sgRNA knockout: sgERN1, 1000 nM	111
sgRNA knockout: sgERN1, 10000 nM	95.7
sgRNA knockout: sgHSF1, 10 nM	130
sgRNA knockout: sgHSF1, 100 nM	159
sgRNA knockout: sgHSF1, 1000 nM	116
sgRNA knockout: sgHSF1, 10000 nM	115
sgRNA knockout: sgHSF2, 10 nM	117
sgRNA knockout: sgHSF2, 100 nM	131
sgRNA knockout: sgHSF2, 1000 nM	118
sgRNA knockout: sgHSF2, 10000 nM	107
sgRNA knockout: sgKEAP1, 10 nM	132
sgRNA knockout: sgKEAP1, 100 nM	159
sgRNA knockout: sgKEAP1, 1000 nM	144
sgRNA knockout: sgKEAP1, 10000 nM	130
sgRNA knockout: sgNFE2L2, 10 nM	92.2
sgRNA knockout: sgNFE2L2, 100 nM	106
sgRNA knockout: sgNFE2L2, 1000 nM	95.2
sgRNA knockout: sgNFE2L2, 10000 nM	89.4
sgRNA knockout: sgSLC35F2, 10 nM	98.1
sgRNA knockout: sgSLC35F2, 100 nM	111
sgRNA knockout: sgSLC35F2, 1000 nM	103
sgRNA knockout: sgSLC35F2, 10000 nM	97
sgRNA knockout: sgXBP1, 10 nM	100
sgRNA knockout: sgXBP1, 100 nM	108
sgRNA knockout: sgXBP1, 1000 nM	105
sgRNA knockout: sgXBP1, 10000 nM	97.2

Cc1cnc(-c2cnc(NCCNc3ccc(C#N)cn3)nc2-c2ccc(Cl)cc2Cl)[nH]1
Details	relative cell number
sgRNA knockout: sgATF3, 10 nM	96.1
sgRNA knockout: sgATF3, 100 nM	92.1
sgRNA knockout: sgATF3, 1000 nM	120.9
sgRNA knockout: sgATF3, 10000 nM	129
sgRNA knockout: sgATF4, 10 nM	90.7
sgRNA knockout: sgATF4, 100 nM	82.44
sgRNA knockout: sgATF4, 1000 nM	113
sgRNA knockout: sgATF4, 10000 nM	127
sgRNA knockout: sgATF6, 10 nM	106
sgRNA knockout: sgATF6, 100 nM	107
sgRNA knockout: sgATF6, 1000 nM	118
sgRNA knockout: sgATF6, 10000 nM	146
sgRNA knockout: sgATG7, 10 nM	96.2
sgRNA knockout: sgATG7, 100 nM	94.2
sgRNA knockout: sgATG7, 1000 nM	105
sgRNA knockout: sgATG7, 10000 nM	125.5
sgRNA knockout: sgERN1, 10 nM	94.8
sgRNA knockout: sgERN1, 100 nM	102
sgRNA knockout: sgERN1, 1000 nM	97.5
sgRNA knockout: sgERN1, 10000 nM	136
sgRNA knockout: sgHSF1, 10 nM	95.1
sgRNA knockout: sgHSF1, 100 nM	110.3
sgRNA knockout: sgHSF1, 1000 nM	94.7
sgRNA knockout: sgHSF1, 10000 nM	112
sgRNA knockout: sgHSF2, 10 nM	95.4
sgRNA knockout: sgHSF2, 100 nM	97.6
sgRNA knockout: sgHSF2, 1000 nM	102
sgRNA knockout: sgHSF2, 10000 nM	123
sgRNA knockout: sgKEAP1, 10 nM	94.7
sgRNA knockout: sgKEAP1, 100 nM	100.41
sgRNA knockout: sgKEAP1, 1000 nM	98.64
sgRNA knockout: sgKEAP1, 10000 nM	124
sgRNA knockout: sgNFE2L2, 10 nM	94.1
sgRNA knockout: sgNFE2L2, 100 nM	87.4
sgRNA knockout: sgNFE2L2, 1000 nM	116.2
sgRNA knockout: sgNFE2L2, 10000 nM	134
sgRNA knockout: sgSLC35F2, 10 nM	91.8
sgRNA knockout: sgSLC35F2, 100 nM	95
sgRNA knockout: sgSLC35F2, 1000 nM	98.3
sgRNA knockout: sgSLC35F2, 10000 nM	119
sgRNA knockout: sgXBP1, 10 nM	92.9
sgRNA knockout: sgXBP1, 100 nM	94.18
sgRNA knockout: sgXBP1, 1000 nM	113
sgRNA knockout: sgXBP1, 10000 nM	129.4

Cc1cnc(Nc2ccc(OCCN3CCCC3)cc2)nc1Nc1cccc(S(=O)(=O)NC(C)(C)C)c1
Details	relative cell number
sgRNA knockout: sgATF3, 10 nM	92.4
sgRNA knockout: sgATF3, 100 nM	98.8
sgRNA knockout: sgATF3, 1000 nM	66
sgRNA knockout: sgATF3, 10000 nM	14.3
sgRNA knockout: sgATF4, 10 nM	96.5
sgRNA knockout: sgATF4, 100 nM	99.8
sgRNA knockout: sgATF4, 1000 nM	68
sgRNA knockout: sgATF4, 10000 nM	14.7
sgRNA knockout: sgATF6, 10 nM	95.4
sgRNA knockout: sgATF6, 100 nM	110
sgRNA knockout: sgATF6, 1000 nM	78
sgRNA knockout: sgATF6, 10000 nM	13.8
sgRNA knockout: sgATG7, 10 nM	96.9
sgRNA knockout: sgATG7, 100 nM	108
sgRNA knockout: sgATG7, 1000 nM	66.6
sgRNA knockout: sgATG7, 10000 nM	14.63
sgRNA knockout: sgERN1, 10 nM	97.8
sgRNA knockout: sgERN1, 100 nM	107
sgRNA knockout: sgERN1, 1000 nM	71.9
sgRNA knockout: sgERN1, 10000 nM	9.54
sgRNA knockout: sgHSF1, 10 nM	99
sgRNA knockout: sgHSF1, 100 nM	93.4
sgRNA knockout: sgHSF1, 1000 nM	69.4
sgRNA knockout: sgHSF1, 10000 nM	15.5
sgRNA knockout: sgHSF2, 10 nM	98.8
sgRNA knockout: sgHSF2, 100 nM	109
sgRNA knockout: sgHSF2, 1000 nM	74.3
sgRNA knockout: sgHSF2, 10000 nM	14.9
sgRNA knockout: sgKEAP1, 10 nM	92.3
sgRNA knockout: sgKEAP1, 100 nM	91.8
sgRNA knockout: sgKEAP1, 1000 nM	73.3
sgRNA knockout: sgKEAP1, 10000 nM	18.4
sgRNA knockout: sgNFE2L2, 10 nM	100
sgRNA knockout: sgNFE2L2, 100 nM	102
sgRNA knockout: sgNFE2L2, 1000 nM	62.9
sgRNA knockout: sgNFE2L2, 10000 nM	13.5
sgRNA knockout: sgSLC35F2, 10 nM	101
sgRNA knockout: sgSLC35F2, 100 nM	102
sgRNA knockout: sgSLC35F2, 1000 nM	69.6
sgRNA knockout: sgSLC35F2, 10000 nM	15.1
sgRNA knockout: sgXBP1, 10 nM	99
sgRNA knockout: sgXBP1, 100 nM	102
sgRNA knockout: sgXBP1, 1000 nM	68.9
sgRNA knockout: sgXBP1, 10000 nM	12.9

From the supplement of paper PMC7661543
